{
  "source": "paper PMC10942257",
  "binders": {"B1": {"name": "TOPLESS (TPL), yeast two-hybrid fusion (protein, UniProt Q94AI7 1-1131)", "chain": "MSSLSRELVFLILQFLDEEKFKETVHKLEQESGFFFNMKYFEDEVHNGNWDEVEKYLSGFTKVDDNRYSMKIFFEIRKQKYLEALDKHDRPKAVDILVKDLKVFSTFNEELFKEITQLLTLENFRENEQLSKYGDTKSARAIMLVELKKLIEANPLFRDKLQFPTLRNSRLRTLINQSLNWQHQLCKNPRPNPDIKTLFVDHSCGPPNGARAPSPVNNPLLGGIPKAGGFPPLGAHGPFQPTASPVPTPLAGWMSSPSSVPHPAVSAGAIALGGPSIPAALKHPRTPPTNASLDYPSADSEHVSKRTRPMGISDEVNLGVNMLPMSFSGQAHGHSPAFKAPDDLPKTVARTLSQGSSPMSMDFHPIKQTLLLVGTNVGDIGLWEVGSRERLVQKTFKVWDLSKCSMPLQAALVKEPVVSVNRVIWSPDGSLFGVAYSRHIVQLYSYHGGEDMRQHLEIDAHVGGVNDISFSTPNKQLCVITCGDDKTIKVWDAATGVKRHTFEGHEAPVYSVCPHYKENIQFIFSTALDGKIKAWLYDNMGSRVDYDAPGRWCTTMAYSADGTRLFSCGTSKDGESFIVEWNESEGAVKRTYQGFHKRSLGVVQFDTTKNRYLAAGDDFSIKFWDMDAVQLLTAIDGDGGLQASPRIRFNKEGSLLAVSGNENVIKIMANSDGLRLLHTFENISSESSKPAINSIAAAAAAAATSAGHADRSANVVSIQGMNGDSRNMVDVKPVITEESNDKSKIWKLTEVSEPSQCRSLRLPENLRVAKISRLIFTNSGNAILALASNAIHLLWKWQRNERNATGKATASLPPQQWQPASGILMTNDVAETNPEEAVPCFALSKNDSYVMSASGGKISLFNMMTFKTMATFMPPPPAATFLAFHPQDNNIIAIGMDDSTIQIYNVRVDEVKSKLKGHSKRITGLAFSNVLNVLVSSGADAQLCVWNTDGWEKQRSKVLPLPQGRPNSAPSDTRVQFHQDQAHFLVVHETQLAIYETTKLECMKQWAVRESLAPITHATFSCDSQLVYASFMDATVCVFSSANLRLRCRVNPSAYLPASLSNSNVHPLVIAAHPQEPNMFAVGLSDGGVHIFEPLESEGKWGVAPPAENGSASGAPTAPSVGASASDQPQR"}, "B2": {"name": "TFL2/LHP1, BiFC construct (protein, UniProt Q946J8 1-445)", "chain": "MKGASGAVKKKPQVLNEAGEAETAVETVGESRKISGDGGFGSDDGGGGGGGGSGESILREIGDDRPTEDGDEEEEEDEDEDDGGDEEDEEGEGEGGQEERPKLDEGFYEIEAIRRKRVRKGKVQYLIKWRGWPETANTWEPLENLQSIADVIDAFEGSLKPGKPGRKRKRKYAGPHSQMKKKQRLTSTSHDATEKSDSSTSLNNSSLPDIPDPLDLSGSSLLNRDVEAKNAYVSNQVEANSGSVGMARQVRLIDNEKEYDPTLNELRGPVNNSNGAGCSQGGGIGSEGDNVRPNGLLKVYPKELDKNSRFIGAKRRKSGSVKRFKQDGSTSNNHTAPTDQNLTPDLTTLDSFGRIARMGNEYPGVMENCNLSQKTKIEELDITKILKPMSFTASVSDNVQEVLVTFLALRSDGKEALVDNRFLKAHNPHLLIEFYEQHLKYNRTP"}, "B3": {"name": "Lysine-Specific Demethylase 1 (LSD1)-like histone demethylase LDL1, BiFC construct (enzyme, UniProt Q8VXV7 1-844)", "chain": "MSTETKETRPETKPEDLGTHTTVDVPGEEPLGELIADDVNEVVSDASATETDFSLSPSQSEQNIEEDGQNSLDDQSPLTELQPLPLPPPLPVEARISESLGEEESSDLVTEQQSQNPNAAEPGPRARKRRRRKRFFTEINANPAFSRNRRTSVGKEVDSEALIAMSVGFPVYSLTEEEIEANVVSIIGGKDQANYIVVRNHIIALWRSNVSNWLTRDHALESIRAEHKTLVDTAYNFLLEHGYINFGLAPVIKEAKLRSFDGVEPPNVVVVGAGLAGLVAARQLLSMGFRVLVLEGRDRPGGRVKTRKMKGGDGVEAMADVGGSVLTGINGNPLGVLARQLGLPLHKVRDICPLYLPNGELADASVDSKIEASFNKLLDRVCKLRQSMIEENKSVDVPLGEALETFRLVYGVAEDQQERMLLDWHLANLEYANATLLGNLSMAYWDQDDPYEMGGDHCFIPGGNEIFVHALAENLPIFYGSTVESIRYGSNGVLVYTGNKEFHCDMALCTVPLGVLKKGSIEFYPELPHKKKEAIQRLGFGLLNKVAMLFPCNFWGEEIDTFGRLTEDPSTRGEFFLFYSYSSVSGGPLLVALVAGDAAERFETLSPTDSVKRVLQILRGIYHPKGIVVPDPVQALCSRWGQDKFSYGSYSYVAVGSSGDDYDILAESVGDGRVFFAGEATNRQYPATMHGAFLSGMREAANILRVARRRASSSALNPNQICIDKEEEVDEEEDRCLDQLFETPDLTFGNFSVLFTPNSDEPESMSLLRVRIQMEKPESGLWLYGLVTRKQAIELGEMDGDELRNEYLREKLGLVPVERKSLSQEGESMISSLKAARLNRQIFD"}, "B4": {"name": "YFPc-TPL (protein, UniProt Q94AI7 1-1131)", "chain": "B1 chain"}, "B5": {"name": "Myc-TPL (protein, UniProt Q94AI7 1-1131)", "chain": "B1 chain"}, "B6": {"name": "YFPc-HDA19 (enzyme, UniProt O22446 1-501)", "chain": "MDTGGNSLASGPDGVKRKVCYFYDPEVGNYYYGQGHPMKPHRIRMTHALLAHYGLLQHMQVLKPFPARDRDLCRFHADDYVSFLRSITPETQQDQIRQLKRFNVGEDCPVFDGLYSFCQTYAGGSVGGSVKLNHGLCDIAINWAGGLHHAKKCEASGFCYVNDIVLAILELLKQHERVLYVDIDIHHGDGVEEAFYATDRVMTVSFHKFGDYFPGTGHIQDIGYGSGKYYSLNVPLDDGIDDESYHLLFKPIMGKVMEIFRPGAVVLQCGADSLSGDRLGCFNLSIKGHAECVKFMRSFNVPLLLLGGGGYTIRNVARCWCYETGVALGVEVEDKMPEHEYYEYFGPDYTLHVAPSNMENKNSRQMLEEIRNDLLHNLSKLQHAPSVPFQERPPDTETPEVDEDQEDGDKRWDPDSDMDVDDDRKPIPSRVKREAVEPDTKDKDGLKGIMERGKGCEVEVDESGSTKVTGVNPVGVEEASVKMEEEGTNKGGAEQAFPPKT"}, "B7": {"name": "TFL2/LHP1, yeast two-hybrid fusion (protein, UniProt Q946J8 1-445)", "chain": "B2 chain"}},
  "key": {"[1]": {"target": "T1, RABBIT EARS (RBE), yeast two-hybrid fusion (Arabidopsis thaliana) (UniProt Q9LHS9)", "T1 sequence": "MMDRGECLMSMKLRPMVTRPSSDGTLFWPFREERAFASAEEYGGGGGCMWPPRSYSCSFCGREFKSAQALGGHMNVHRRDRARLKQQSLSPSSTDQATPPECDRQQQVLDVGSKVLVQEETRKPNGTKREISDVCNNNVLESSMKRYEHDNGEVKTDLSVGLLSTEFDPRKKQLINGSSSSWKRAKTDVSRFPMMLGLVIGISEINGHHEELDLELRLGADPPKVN", "test": "two-hybrid; Gal4 system, pGADT7 (prey) and pGBKT7-GW (bait) co-transformed into Y2H Gold yeast; DDO (SD-Leu-Trp) to select, QDO to analyze interactions; repeated three times"}, "[2]": {"target": "T2, YFPn-RBE (Arabidopsis thaliana) (UniProt Q9LHS9)", "T2 sequence": "T1 sequence", "test": "split reporter; BiFC with YFPn and YFPc fusions (pEarleyGate202-YN, pEarleyGate201-YC) co-infiltrated by Agrobacterium into N. benthamiana leaves with P19; confocal imaging 48h after infiltration"}, "[3]": {"target": "T3, YFP-RBE (Arabidopsis thaliana) (UniProt Q9LHS9)", "T3 sequence": "T1 sequence", "test": "co-IP; YFP-RBE and Myc-TPL co-infiltrated with P19 into N. benthamiana leaves; extract incubated with GFP-trap agarose beads overnight at 4°C; blots with anti-Myc and anti-GFP"}},
  "note": "Results are given in words; binding and its absence hold for the method and conditions named. For some of these results: Binding seen in cells or lysates may run through a third protein. Some entries that bind do so weakly or less than the wild type. Tags and fused reporters may be left off the sequences shown.",
  "data": [
    {"binder": "B1", "values": [
      {"measurement": "binding", "setting": "[1]", "result": "binds"}
    ]},
    {"binder": "B2", "values": [
      {"measurement": "binding", "setting": "[2]", "result": "binds"}
    ]},
    {"binder": "B3", "values": [
      {"measurement": "binding", "setting": "[2]", "result": "binds"}
    ]},
    {"binder": "B4", "values": [
      {"measurement": "binding", "setting": "[2]", "result": "binds"}
    ]},
    {"binder": "B5", "values": [
      {"measurement": "binding", "setting": "[3]", "result": "binds"}
    ]},
    {"binder": "B6", "values": [
      {"measurement": "binding", "setting": "[2]", "result": "binds"}
    ]},
    {"binder": "B7", "values": [
      {"measurement": "binding", "setting": "[1]", "result": "binds"}
    ]}
  ]
}
